For 1 molecule, IC50 results are on record in patent US20240350460A1, “APPLICATION OF HYDRAZIDE COMPOUND IN TUMOR TREATMENT” (NANJING SHIJIANG MEDICINE TECHNOLOGY CO., LTD, priority 2021, published 2024).

The assay relates to 786-O. The experiment in a line: Cell viability (Promega CellTiter-Glo), inhibitory effect on tumor cell line. The note with it: Homo sapiens, 786-0, clear cell renal cell adenocarcinoma cell, insensitive group, 3-4 days of culture, n=3. In kind it is cell-based. The protocol: The inhibitory effect of nifuroxazide or furazolidone on various tumor cell lines was detected using cell activity detection reagent. Cell viability was detected using the Promega CellTiter-Glo kit, cell viability was determined by directly measuring intracellular ATP content. […] Each tumor cell was cultured separately in relevant medium (+p/s), and was incubated for 3 h, then the gradient diluted nifuroxazide or furazolidone was added. […] The name, source and culture conditions of each tumor cell line were as follows: Cell line 786-O (ATCC, No. CRL-1932) was cultured in 10% fetal bovine serum-containing RPMI1640 medium (+P/S).
In general terms: In ATP-based viability assays light output follows the ATP content of the culture.

For `O=C1OCCN1/N=C/c1ccc([N+](=O)[O-])o1` [Furazolidone, furazolidone], the IC50 – broadly, the concentration that inhibits the measured activity by half – is above 50 µM.
